Some entries share one result that the patent states for a list of compounds.
System: MCF7 breast cancer cells
Test: ATP-TCA cell viability assay in MCF7 cells and MCF7 cells stably expressing PGRMC1 WT or mutants
Assay type: cell-based, human
Conditions: mutants Y179F and S180A, 100% of the clinically employed concentration (TDC), 7 days

With Nc1ccn([C@@H]2O[C@H](CO)[C@@H](O)C2(F)F)c(=O)n1 [Gemzitabine, Gemcitabine] the viable cells was “more than 30%”.
